This passage reports binding results from article PMC7093153 (eLife, 2020).

No constants are given. Whether binding was seen depends on the method and setting. For some assays here: A result given as binding can be weak or reduced; the word gives no strength. For some assays here: Binding seen in cells or lysates may run through a third protein.

In assay [1] the target is T1, Rad51 (S. pombe), purified (S. pombe) (UniProt P36601).
T1 sequence: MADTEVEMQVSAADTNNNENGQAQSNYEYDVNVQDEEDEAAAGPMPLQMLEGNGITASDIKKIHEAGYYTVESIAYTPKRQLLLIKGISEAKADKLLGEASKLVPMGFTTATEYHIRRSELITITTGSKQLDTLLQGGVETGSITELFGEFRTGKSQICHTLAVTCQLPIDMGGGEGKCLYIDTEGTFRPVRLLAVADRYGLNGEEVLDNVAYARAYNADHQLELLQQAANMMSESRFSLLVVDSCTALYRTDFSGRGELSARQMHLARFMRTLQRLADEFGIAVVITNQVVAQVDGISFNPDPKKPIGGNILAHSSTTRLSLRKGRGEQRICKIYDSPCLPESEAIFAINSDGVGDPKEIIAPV
Briefly: co-IP.

Assay [2] deals with T1, Rad51 (S. pombe), purified (S. pombe). Briefly: pull-down.
In assay [3] the target is Rad57 (untagged) (S. pombe). Briefly: co-IP.

Turning to “Swi5-Sfr1-4A complex (Site 2 mutant) (S. pombe)”, the binding result in assay [1] and in assay [2] was “binds” in each case.

For “Swi5-Sfr1-3A complex (Site 1 mutant) (S. pombe)”, the binding entry in assay [1] and in assay [2] was “binds” throughout.

B1: Rad51 (S. pombe), purified (natural protein, UniProt P36601 1-365, looked up)
chain: T1 sequence
As for B1, the binding entry in assay [3] is listed as “no binding”.
